Results taken from patent publication US12660820B2, “Heterocyclic compound and harmful arthropod-controlling composition including same” (SUMITOMO CHEMICAL COMPANY, LIMITED, priority 2020, dated 2026).
Some results were stated once for a whole list of compounds, not compound by compound. For at least one compound, name, drawing or mass did not settle the structure.

What was measured:
Type in all cases: in vivo
[1] = test system: Western corn rootworm (Diabrotica virgifera virgifera); assay: Test Method 5: corn seedling dip, second-instar Western corn rootworm larvae; settings: Test Example 5-1; 200 ppm; after 5 days
[2] = test system: diamondback moth (Plutella xylostella); assay: Test Method 4: sprayed cabbage seedling, second-instar diamondback moth larvae; settings: Test Example 4-1; 500 ppm; after 5 days
[3] = test system: diamondback moth (Plutella xylostella); assay: Test Method 13: sprayed cabbage seedling, second-instar diamondback moth larvae; settings: Test Example 13-1; 500 ppm; after 5 days
[4] = test system: common house mosquito (Culex pipiens pallens); assay: Test Method 14: coated glass vial, common house mosquito female adults; settings: Test Example 14-1; 10 mg/m^2; prescribed time 1 day
[5] = test system: housefly (Musca domestica); assay: Test Method 8: coated glass vial, housefly female adults; settings: Test Example 8-1; 40 mg/m^2; prescribed time 1 hour
[6] = test system: common house mosquito (Culex pipiens pallens); assay: Test Method 12: last instar common house mosquito larvae in diluted solution; settings: Test Example 12-1; 3.5 ppm; after 1 day

What does the source list for `CCS(=O)(=O)c1c(-c2cnc3cc(C(F)(F)F)ccn3c2=O)nc2cc(C(F)(F)F)ccn12` [compound 6]?
Mortality [1]: ≥ 80%; Mortality [2]: ≥ 80%; Mortality [3]: ≥ 80%; Mortality [4]: ≥ 80%; Mortality [5]: ≥ 80%

What does the source list for `CCS(=O)(=O)c1c(-c2cnc3cc(C(F)(F)F)ccn3c2=O)nc2ccc(I)cn12` [compound 8]?
Mortality [1]: ≥ 80%; Mortality [2]: ≥ 80%; Mortality [3]: ≥ 80%; Mortality [4]: ≥ 80%; Mortality [5]: ≥ 80%

Which results are given for `CCS(=O)(=O)c1c(-c2cnc3cc(C(F)(F)F)ccn3c2=O)nc2ccc(Cl)cn12` [compound 7]?
Mortality [1]: ≥ 80%; Mortality [2]: ≥ 80%; Mortality [3]: ≥ 80%; Mortality [4]: ≥ 80%; Mortality [5]: ≥ 80%

Which Mortality [6] does the source give for `CCS(=O)(=O)c1c(-c2cn3cc(I)ccc3nc2=O)nc2ccc(C(F)(F)F)cn12` [compound 11] here?
The Mortality was ≥ 91%.
